Results on three molecules are retold here after PMC5421886.

Sequences of proteins named here, by UniProt entry; tags and fusion partners are left off.
UniProt O75832: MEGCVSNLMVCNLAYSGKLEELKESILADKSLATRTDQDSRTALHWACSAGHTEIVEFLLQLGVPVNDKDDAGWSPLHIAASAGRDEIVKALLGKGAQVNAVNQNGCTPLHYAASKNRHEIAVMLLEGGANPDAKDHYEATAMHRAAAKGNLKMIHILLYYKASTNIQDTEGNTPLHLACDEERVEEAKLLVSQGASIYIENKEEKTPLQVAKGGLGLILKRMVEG
UniProt P29350: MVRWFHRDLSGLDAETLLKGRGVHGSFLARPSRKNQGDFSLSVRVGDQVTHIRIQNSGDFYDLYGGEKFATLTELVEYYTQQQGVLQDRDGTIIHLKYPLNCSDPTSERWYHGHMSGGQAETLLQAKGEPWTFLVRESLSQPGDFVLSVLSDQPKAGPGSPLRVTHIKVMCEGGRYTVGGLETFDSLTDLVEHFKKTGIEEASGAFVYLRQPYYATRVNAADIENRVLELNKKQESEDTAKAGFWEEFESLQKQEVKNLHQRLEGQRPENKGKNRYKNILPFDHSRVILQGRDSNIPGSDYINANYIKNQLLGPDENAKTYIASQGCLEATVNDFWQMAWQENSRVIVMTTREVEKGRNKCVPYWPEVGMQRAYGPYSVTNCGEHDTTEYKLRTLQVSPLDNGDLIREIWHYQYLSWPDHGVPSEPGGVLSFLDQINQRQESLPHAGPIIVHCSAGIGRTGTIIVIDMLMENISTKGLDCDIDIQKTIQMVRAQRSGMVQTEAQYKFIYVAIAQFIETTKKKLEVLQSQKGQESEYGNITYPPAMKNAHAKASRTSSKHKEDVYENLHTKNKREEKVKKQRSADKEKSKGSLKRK
UniProt P29351: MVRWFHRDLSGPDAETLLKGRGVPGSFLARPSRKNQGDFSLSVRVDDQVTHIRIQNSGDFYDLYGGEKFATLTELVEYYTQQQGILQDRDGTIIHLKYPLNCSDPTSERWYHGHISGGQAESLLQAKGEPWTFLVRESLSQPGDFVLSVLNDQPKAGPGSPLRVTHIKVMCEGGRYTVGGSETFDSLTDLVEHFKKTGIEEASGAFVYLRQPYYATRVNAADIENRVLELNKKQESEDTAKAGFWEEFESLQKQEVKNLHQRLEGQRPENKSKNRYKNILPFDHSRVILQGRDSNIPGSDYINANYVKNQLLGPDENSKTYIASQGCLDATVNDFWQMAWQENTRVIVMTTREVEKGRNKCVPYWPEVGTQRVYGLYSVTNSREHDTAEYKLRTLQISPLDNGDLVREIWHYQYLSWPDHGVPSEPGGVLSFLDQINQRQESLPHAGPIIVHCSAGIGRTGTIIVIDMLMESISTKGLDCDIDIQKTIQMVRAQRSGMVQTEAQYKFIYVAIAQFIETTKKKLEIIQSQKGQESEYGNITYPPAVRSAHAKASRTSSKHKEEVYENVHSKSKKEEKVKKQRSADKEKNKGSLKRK

Assay [1] deals with HA-tagged human gankyrin (human) (UniProt O75832). Nature of the assay: co-IP; U-2 OS cells co-transfected with HA-gankyrin and FLAG-SHP-1; lysates immunoprecipitated with anti-FLAG or anti-HA, western blot.
The next assay concerns the target FLAG-tagged SHP-1 (UniProt P29350). The description is as above.
Assay [2] addresses SHP-1 (endogenous, mouse colon) (mouse (endogenous in colon tissue)) (UniProt P29351). In words: proximity ligation; Duolink fluorescence assay on colonic tissue of AOM/DSS-treated Gankyrin f/f mice with gankyrin and SHP-1 antibodies; confocal microscopy; red dots mainly in non-epithelial cells.

These are yes or no findings as the source states them, for the method shown. In cells and extracts the contact can be indirect. Some entries that bind do so weakly or less than the wild type.

“FLAG-tagged SHP-1 (from UniProt P29350 1-595)”: in assay [1], the binding result is recorded as “binds”.
As to “HA-tagged human gankyrin (from UniProt O75832 1-226)”, in the assay with FLAG-tagged SHP-1, the binding result is recorded as “binds”.

B1: gankyrin (endogenous, mouse colon) (protein, UniProt Q9Z2X2 1-231)
chain: MEGCVSNIMICNLAYSGKLDELKERILADKSLATRTDQDSRTALHWACSAGHTEIVEFLLQLGVPVNDKDDAGWSPLHIAASAGRDEIVKALLVKGAHVNAVNQNGCTPLHYAASKNRHEIAVMLLEGGANPDAKDHYDATAMHRAAAKGNLKMVHILLFYKASTNIQDTEGNTPLHLACDEERVEEAKFLVTQGASIYIENKEEKTPLQVAKGGLGLILKRLAESEEASM
For the molecule B1, in assay [2], the binding result is “binds”.
